The IC50 is the concentration that inhibits the measured activity by half.

Results on one compound are retold here after ChEMBL document CHEMBL6114964, “Discovery of novel spirocyclic derivates as potent androgen receptor antagonists” (Bioorg Med Chem, 2025).

The structures appear in SMILES notation.

The test system of the assay is LNCaP. Nature of the assay: cells. Particulars: Homo sapiens, 168 h. The class given is functional, cell-based.

`CNC(=O)c1ccc(N2C(=S)N(c3ccc(C#N)c(C(F)(F)F)c3)C(=O)C2(C)C)cc1F` [ENZALUTAMIDE] displayed an IC50 of 1.72 µM.
